Results: the supplement of paper PMC12819154, “High-throughput peptide-centric local stability assay extends protein–ligand identification to membrane proteins, tissues and bacteria” (Nature Structural & Molecular Biology, 2025)
The other results are listed elsewhere or left out. Most values lie at the level of the controls, where differences are scatter.

Protein sequences, listed by entry. Tags and fused reporters are not part of them. Lines headed by an entry give the natural chain unless they say otherwise; changes in a name come on top.
UniProt P36941: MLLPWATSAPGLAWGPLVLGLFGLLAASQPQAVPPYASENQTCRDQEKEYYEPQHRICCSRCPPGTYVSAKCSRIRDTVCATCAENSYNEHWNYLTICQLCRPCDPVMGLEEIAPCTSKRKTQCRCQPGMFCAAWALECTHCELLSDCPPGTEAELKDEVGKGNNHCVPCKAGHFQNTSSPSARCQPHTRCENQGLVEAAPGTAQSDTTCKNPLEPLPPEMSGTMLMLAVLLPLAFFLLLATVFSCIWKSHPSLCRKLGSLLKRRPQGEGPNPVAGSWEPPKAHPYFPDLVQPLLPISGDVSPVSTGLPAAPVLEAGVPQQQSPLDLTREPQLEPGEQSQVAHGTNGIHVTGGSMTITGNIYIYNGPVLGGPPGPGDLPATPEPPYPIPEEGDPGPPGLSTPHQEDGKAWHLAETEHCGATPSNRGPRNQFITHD
UniProt P40121: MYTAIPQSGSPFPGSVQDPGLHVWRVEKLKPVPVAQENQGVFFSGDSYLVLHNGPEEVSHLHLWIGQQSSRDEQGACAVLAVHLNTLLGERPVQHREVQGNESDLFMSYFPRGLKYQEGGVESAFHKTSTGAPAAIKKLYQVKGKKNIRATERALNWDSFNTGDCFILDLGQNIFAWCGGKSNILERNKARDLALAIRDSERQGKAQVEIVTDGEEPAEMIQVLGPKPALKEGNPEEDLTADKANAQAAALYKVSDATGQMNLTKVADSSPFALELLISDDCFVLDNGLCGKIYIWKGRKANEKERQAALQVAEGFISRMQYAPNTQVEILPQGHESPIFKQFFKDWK
UniProt P29536: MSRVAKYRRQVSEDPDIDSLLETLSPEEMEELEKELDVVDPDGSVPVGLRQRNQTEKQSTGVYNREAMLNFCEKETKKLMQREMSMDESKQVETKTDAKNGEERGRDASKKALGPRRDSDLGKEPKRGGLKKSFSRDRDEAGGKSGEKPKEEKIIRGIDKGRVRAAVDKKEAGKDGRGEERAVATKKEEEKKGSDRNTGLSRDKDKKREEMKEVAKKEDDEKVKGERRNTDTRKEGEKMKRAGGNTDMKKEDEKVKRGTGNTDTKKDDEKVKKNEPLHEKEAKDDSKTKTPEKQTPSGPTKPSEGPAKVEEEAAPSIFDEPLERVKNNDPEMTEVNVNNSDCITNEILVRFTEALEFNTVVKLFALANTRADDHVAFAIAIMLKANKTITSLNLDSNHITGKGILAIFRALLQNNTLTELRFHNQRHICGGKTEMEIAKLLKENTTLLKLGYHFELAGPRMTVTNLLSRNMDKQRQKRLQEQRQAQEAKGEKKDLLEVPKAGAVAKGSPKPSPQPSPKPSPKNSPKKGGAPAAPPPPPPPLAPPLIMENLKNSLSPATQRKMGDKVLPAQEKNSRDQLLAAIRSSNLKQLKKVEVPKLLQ
UniProt P43360, whole entry: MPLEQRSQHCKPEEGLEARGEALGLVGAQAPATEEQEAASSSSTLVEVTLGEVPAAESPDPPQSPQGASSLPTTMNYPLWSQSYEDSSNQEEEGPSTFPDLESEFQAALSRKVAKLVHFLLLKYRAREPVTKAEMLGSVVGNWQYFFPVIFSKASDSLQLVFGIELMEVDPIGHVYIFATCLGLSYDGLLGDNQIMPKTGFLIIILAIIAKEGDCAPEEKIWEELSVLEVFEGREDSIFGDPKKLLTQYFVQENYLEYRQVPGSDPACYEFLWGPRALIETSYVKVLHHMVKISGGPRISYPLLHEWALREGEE
UniProt P35580, whole entry: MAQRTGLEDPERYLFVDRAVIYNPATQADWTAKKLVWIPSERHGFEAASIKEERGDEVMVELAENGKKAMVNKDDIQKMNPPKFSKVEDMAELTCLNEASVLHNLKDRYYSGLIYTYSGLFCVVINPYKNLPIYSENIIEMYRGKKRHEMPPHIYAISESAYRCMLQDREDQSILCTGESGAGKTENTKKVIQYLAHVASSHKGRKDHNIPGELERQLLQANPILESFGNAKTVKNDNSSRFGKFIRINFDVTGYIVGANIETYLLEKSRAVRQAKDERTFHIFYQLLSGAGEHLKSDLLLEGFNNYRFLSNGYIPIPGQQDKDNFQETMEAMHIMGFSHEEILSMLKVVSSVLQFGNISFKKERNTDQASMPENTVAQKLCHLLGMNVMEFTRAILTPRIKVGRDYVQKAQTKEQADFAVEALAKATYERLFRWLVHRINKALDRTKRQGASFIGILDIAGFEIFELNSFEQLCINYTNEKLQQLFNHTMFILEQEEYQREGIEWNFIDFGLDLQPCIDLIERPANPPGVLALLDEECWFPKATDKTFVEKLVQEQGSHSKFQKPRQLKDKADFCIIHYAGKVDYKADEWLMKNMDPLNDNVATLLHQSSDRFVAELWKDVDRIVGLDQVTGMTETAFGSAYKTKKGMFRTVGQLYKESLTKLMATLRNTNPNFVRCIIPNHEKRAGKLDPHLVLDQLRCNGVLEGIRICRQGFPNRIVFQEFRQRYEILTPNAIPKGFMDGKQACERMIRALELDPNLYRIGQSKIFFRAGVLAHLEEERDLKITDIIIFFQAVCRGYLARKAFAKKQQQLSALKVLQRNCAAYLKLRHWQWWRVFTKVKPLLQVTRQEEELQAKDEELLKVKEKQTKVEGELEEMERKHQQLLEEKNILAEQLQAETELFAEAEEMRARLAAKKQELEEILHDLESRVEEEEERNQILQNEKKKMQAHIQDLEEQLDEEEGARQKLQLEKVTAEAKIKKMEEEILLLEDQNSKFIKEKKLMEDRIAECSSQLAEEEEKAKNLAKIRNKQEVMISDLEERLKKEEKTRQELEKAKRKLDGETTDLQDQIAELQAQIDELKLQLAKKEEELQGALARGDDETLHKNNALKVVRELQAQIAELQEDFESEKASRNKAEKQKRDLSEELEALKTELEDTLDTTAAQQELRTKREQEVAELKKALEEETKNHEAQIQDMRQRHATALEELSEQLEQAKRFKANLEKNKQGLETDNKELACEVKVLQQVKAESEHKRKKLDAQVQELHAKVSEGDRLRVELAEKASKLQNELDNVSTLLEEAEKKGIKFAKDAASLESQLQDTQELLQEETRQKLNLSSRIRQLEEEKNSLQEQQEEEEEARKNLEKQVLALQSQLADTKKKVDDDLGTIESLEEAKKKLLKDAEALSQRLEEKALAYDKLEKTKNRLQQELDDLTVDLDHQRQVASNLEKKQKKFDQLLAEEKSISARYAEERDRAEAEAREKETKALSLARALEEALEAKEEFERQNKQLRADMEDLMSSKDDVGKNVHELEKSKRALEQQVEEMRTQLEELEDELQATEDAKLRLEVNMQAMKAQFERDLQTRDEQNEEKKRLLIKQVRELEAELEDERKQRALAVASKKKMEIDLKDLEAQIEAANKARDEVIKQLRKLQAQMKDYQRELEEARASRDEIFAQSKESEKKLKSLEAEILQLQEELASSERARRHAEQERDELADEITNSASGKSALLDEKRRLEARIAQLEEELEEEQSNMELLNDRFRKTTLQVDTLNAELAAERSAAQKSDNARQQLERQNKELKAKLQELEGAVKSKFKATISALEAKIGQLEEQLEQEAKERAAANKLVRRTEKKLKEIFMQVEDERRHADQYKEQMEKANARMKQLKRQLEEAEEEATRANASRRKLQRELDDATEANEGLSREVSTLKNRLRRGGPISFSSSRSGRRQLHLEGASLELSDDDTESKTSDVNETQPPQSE
UniProt P38646: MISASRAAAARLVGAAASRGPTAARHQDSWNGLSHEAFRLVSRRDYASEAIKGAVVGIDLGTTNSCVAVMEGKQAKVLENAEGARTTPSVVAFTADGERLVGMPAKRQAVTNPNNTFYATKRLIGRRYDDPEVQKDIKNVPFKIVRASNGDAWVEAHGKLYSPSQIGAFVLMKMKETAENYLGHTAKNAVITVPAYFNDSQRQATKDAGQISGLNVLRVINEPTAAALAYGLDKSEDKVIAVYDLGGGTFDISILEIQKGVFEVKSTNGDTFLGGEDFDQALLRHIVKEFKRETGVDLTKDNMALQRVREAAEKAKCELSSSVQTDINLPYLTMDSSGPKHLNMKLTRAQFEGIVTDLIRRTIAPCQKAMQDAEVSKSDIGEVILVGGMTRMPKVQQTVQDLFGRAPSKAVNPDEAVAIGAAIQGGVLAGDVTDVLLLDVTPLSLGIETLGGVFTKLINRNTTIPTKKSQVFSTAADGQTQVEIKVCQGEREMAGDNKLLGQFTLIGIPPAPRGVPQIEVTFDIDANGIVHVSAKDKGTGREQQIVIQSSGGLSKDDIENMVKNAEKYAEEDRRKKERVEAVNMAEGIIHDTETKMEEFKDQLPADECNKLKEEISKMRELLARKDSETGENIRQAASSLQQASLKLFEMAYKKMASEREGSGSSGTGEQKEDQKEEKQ
UniProt P36969, whole entry: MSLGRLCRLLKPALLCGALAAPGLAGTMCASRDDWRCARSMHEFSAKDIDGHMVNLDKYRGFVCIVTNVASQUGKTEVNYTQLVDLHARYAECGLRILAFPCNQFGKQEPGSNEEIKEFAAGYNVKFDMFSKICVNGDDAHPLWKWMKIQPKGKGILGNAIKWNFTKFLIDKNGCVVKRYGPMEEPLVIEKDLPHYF
UniProt P41567, whole entry: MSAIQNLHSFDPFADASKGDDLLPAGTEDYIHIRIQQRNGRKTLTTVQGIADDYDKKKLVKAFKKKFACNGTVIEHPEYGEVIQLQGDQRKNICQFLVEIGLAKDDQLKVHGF
UniProt P31040: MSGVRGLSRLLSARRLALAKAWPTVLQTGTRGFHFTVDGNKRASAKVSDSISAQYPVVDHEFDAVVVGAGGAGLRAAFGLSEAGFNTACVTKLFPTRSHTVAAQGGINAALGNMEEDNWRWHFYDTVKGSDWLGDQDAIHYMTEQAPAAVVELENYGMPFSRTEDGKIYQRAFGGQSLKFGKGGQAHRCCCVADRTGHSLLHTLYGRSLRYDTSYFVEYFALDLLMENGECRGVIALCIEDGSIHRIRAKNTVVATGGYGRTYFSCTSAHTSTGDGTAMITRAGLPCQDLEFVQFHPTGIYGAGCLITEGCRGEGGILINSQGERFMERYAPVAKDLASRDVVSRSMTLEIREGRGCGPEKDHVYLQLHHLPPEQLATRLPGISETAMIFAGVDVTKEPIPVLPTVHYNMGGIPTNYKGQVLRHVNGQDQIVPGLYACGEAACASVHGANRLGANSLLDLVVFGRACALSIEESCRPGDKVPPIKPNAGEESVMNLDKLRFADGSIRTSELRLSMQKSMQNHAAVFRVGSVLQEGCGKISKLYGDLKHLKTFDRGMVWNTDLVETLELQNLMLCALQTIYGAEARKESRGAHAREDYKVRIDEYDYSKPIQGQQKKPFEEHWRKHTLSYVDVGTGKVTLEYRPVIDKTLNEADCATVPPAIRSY
UniProt P28838: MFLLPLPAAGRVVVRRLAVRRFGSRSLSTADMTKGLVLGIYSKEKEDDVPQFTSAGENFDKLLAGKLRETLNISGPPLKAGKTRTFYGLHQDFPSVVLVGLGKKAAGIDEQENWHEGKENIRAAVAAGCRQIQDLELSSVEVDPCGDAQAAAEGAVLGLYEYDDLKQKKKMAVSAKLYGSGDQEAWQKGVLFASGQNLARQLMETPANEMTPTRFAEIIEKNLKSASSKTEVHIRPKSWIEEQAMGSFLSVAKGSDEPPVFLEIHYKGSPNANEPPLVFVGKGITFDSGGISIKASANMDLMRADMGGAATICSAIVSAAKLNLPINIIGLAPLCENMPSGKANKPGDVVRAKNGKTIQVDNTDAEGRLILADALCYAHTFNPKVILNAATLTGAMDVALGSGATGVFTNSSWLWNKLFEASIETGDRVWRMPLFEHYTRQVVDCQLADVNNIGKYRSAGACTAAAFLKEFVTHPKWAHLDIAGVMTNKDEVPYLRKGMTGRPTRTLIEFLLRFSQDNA
UniProt P41091, whole entry: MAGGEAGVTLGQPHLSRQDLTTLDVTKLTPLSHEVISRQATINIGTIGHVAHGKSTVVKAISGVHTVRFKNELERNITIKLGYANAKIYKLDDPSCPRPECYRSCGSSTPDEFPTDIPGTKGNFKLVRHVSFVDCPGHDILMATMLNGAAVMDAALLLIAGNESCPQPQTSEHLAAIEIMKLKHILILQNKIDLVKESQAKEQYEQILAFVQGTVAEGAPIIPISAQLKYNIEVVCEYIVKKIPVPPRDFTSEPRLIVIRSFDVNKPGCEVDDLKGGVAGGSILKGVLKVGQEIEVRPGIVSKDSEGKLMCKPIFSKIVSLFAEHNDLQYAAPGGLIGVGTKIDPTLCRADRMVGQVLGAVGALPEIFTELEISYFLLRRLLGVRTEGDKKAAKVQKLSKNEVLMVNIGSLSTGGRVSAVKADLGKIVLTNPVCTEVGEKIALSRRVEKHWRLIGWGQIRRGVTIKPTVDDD

These targets were tested with CN[C@@H]1C[C@H]2O[C@@](C)([C@@H]1OC)n1c3ccccc3c3c4c(c5c6ccccc6n2c5c31)C(=O)NC4 [staurosporine] (assay: log2 fold change of tryptic peptide abundance, ligand vs vehicle (limited proteolysis) (log2 ratio); higher = more trypsin-susceptible (destabilized)). Conditions: ligand concentration: 20 uM; sample: K562 cleared lysate; digestion: 4 min, 22 C (HT-PELSA RT4min, Orbitrap Astral).

Target	log2 fold change
LTBR (peptide sequence: AWHLAETEHCGATPSNR, peptide start residue: 409) (UniProt P36941)	0.152
CAPG (peptide sequence: EGNPEEDLTADK, peptide start residue: 232) (UniProt P40121)	0.353
UniProt P29536 (peptide sequence: KEGEKMK, peptide start residue: 234)	0.221
MAGEA6 (peptide sequence: ALIETSYVK, peptide start residue: 277) (UniProt P43360)	0.281
MYH10 (peptide sequence: KHQQLLEEK, peptide start residue: 881) (UniProt P35580)	0.279
HSPA9 (peptide sequence: NTTIPTKK, peptide start residue: 461) (UniProt P38646)	0.211
GPX4 (peptide sequence: ILAFPCNQFGK, peptide start residue: 97) (UniProt P36969)	0.845
EIF1 (peptide sequence: NICQFLVEIGLAK, peptide start residue: 92) (UniProt P41567)	0.187
SDHA (peptide sequence: TGHSLLHTLYGR, peptide start residue: 196) (UniProt P31040)	0.452
LAP3 (peptide sequence: QVVDCQLADVNNIGKYR, peptide start residue: 441) (UniProt P28838)	-0.363
EIF2S3 (peptide sequence: LDDPSCPRPECYR, peptide start residue: 91) (UniProt P41091)	-0.222
